{"sequences": {"note": "Protein sequences, listed by entry. Tags and fused reporters are not part of them. Residues count along the entry.", "UniProt P17948, residues 27-1338": "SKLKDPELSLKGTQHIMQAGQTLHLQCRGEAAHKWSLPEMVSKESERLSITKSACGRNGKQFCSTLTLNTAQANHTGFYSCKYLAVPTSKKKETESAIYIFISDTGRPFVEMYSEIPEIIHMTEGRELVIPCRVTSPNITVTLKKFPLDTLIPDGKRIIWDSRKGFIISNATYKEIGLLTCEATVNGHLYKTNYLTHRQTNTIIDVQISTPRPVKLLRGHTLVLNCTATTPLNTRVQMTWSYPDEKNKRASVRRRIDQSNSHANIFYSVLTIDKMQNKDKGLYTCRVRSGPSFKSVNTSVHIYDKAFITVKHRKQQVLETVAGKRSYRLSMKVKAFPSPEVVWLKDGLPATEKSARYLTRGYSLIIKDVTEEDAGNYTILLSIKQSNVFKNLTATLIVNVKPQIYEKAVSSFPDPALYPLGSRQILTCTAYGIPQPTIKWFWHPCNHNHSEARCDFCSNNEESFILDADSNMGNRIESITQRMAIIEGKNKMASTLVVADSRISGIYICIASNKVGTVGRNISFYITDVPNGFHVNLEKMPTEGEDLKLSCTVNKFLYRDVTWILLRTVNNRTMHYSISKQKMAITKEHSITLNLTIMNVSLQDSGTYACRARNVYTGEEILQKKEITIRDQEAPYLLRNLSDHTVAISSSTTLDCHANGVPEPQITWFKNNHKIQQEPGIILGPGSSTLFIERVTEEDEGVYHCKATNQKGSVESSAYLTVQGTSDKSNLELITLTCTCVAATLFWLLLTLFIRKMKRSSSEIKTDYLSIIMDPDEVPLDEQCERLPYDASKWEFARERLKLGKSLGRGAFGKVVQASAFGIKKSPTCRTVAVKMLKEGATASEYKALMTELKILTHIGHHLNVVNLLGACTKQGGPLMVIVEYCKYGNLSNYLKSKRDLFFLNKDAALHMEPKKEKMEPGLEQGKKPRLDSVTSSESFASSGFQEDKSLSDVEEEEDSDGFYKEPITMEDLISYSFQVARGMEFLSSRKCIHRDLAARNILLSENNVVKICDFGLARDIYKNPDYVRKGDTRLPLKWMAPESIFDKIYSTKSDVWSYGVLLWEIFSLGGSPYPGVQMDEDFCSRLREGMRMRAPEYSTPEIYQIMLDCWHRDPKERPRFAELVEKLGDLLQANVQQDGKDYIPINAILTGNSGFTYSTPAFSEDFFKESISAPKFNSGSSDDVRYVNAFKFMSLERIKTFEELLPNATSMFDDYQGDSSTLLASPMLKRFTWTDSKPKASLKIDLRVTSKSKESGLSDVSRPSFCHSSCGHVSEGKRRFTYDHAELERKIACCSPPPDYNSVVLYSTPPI", "UniProt P35968, residues 20-1356": "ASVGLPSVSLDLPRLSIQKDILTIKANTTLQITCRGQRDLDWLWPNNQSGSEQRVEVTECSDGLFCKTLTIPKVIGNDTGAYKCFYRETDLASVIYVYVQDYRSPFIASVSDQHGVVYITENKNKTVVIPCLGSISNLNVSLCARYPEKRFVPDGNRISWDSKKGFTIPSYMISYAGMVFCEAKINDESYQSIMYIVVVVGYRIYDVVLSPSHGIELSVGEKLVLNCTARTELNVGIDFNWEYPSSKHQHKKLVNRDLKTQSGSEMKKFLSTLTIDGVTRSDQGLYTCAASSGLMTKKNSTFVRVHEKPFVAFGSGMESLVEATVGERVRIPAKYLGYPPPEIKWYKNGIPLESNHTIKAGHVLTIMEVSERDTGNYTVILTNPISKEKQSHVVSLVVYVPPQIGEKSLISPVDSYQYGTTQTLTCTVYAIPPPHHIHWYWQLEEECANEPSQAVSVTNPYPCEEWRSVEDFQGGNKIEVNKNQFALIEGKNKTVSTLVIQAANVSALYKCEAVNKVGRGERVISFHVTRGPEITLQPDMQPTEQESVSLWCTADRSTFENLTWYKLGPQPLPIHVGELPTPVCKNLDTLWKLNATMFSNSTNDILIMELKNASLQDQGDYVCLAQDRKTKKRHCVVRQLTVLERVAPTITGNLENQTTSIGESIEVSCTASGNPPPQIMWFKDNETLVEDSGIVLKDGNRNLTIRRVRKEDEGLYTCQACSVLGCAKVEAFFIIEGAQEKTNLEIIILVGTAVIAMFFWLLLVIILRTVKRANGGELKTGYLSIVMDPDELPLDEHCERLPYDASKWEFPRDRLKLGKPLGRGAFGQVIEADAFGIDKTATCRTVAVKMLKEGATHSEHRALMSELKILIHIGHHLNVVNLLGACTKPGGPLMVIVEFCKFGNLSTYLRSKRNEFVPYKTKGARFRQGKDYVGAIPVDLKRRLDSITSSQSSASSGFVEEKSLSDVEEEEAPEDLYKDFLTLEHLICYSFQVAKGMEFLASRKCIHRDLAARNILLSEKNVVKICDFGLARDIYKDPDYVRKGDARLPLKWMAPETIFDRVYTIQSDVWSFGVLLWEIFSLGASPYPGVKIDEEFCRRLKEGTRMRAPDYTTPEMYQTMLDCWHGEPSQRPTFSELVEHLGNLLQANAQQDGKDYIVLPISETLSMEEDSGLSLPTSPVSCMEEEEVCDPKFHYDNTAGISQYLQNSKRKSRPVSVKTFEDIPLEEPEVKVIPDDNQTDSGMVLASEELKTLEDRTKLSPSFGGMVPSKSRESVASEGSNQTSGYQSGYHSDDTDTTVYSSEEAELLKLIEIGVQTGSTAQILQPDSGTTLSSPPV", "UniProt P23467, residues 23-1997": "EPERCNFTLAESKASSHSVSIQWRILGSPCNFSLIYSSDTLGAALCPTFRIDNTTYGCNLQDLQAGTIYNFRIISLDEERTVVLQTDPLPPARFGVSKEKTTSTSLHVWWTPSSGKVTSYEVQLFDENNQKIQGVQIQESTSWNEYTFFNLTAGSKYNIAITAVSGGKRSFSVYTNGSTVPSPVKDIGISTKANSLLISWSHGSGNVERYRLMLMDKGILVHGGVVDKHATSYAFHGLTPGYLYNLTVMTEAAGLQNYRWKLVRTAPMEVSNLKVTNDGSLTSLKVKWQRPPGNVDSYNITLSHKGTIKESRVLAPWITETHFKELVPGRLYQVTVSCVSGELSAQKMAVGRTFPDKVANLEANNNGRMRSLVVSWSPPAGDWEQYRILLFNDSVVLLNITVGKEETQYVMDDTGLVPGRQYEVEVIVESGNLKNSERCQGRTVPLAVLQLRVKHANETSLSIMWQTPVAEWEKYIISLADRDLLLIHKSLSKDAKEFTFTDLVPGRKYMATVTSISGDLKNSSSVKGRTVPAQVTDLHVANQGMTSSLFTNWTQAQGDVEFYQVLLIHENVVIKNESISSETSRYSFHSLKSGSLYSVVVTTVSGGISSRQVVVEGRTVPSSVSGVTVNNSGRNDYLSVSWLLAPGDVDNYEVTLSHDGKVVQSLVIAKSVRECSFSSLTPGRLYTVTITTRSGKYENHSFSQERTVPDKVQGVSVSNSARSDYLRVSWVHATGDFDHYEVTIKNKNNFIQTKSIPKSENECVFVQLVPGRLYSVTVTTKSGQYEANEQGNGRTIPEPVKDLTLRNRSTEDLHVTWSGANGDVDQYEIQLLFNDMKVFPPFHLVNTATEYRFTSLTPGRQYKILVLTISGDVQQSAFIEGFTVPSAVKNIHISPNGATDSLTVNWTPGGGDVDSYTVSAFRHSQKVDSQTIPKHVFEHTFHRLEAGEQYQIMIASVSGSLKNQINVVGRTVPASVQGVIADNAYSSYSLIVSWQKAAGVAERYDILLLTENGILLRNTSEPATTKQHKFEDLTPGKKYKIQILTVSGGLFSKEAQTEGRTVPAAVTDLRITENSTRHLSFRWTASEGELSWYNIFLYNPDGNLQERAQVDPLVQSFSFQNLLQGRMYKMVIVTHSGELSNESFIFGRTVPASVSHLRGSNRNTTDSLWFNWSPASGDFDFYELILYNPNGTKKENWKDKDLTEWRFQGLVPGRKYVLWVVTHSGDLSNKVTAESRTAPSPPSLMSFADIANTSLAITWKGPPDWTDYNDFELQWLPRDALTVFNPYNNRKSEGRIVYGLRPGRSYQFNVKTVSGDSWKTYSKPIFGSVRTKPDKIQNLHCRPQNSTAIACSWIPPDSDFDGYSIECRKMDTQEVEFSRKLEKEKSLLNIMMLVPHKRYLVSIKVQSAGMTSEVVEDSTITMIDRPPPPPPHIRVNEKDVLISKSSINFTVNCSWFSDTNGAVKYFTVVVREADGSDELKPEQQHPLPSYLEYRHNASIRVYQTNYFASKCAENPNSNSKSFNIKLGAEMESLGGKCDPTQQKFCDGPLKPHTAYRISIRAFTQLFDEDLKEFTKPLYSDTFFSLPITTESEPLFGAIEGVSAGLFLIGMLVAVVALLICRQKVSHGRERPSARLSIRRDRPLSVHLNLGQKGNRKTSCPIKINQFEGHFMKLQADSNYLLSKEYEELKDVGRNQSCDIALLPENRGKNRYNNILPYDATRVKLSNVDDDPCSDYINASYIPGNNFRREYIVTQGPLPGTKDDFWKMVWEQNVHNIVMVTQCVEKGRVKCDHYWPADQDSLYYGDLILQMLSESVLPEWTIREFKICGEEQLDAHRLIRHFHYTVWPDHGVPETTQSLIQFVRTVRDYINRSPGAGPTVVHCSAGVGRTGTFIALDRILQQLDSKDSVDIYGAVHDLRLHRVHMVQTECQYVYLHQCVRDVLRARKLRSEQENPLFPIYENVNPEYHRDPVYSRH", "UniProt O14786, residues 22-923": "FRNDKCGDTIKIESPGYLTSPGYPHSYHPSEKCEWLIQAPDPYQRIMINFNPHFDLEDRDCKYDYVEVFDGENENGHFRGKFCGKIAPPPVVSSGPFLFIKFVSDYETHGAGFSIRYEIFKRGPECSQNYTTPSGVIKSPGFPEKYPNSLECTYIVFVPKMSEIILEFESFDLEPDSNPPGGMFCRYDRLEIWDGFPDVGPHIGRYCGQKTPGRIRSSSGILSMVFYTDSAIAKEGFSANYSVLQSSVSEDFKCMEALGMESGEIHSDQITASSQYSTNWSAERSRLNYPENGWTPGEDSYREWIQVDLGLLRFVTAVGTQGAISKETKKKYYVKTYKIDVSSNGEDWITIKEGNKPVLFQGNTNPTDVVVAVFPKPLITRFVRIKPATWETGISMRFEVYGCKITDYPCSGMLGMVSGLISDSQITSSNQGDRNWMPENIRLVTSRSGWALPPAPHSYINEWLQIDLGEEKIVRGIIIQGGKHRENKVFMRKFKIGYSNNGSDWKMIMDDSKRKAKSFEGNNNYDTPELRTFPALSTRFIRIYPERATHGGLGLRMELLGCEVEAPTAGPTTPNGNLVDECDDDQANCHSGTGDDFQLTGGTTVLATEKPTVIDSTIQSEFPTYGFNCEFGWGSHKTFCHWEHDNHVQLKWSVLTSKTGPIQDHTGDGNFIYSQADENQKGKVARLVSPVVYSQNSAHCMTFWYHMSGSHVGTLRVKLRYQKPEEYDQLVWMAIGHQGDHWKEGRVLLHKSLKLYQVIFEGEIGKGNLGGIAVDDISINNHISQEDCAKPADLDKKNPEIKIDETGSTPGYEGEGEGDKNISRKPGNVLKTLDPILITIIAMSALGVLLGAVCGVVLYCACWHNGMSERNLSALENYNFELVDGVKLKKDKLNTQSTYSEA"}, "source": "paper PMC6704462", "key": {"[1]": {"molecular_target": "VEGF receptor 1 (VEGFR1) (human (endogenous in HUVEC)) (UniProt P17948)", "assay": "co-IP; endogenous proteins; HUVECs (siCon or siSALM4 transfected, stimulated with VEGF-A) lysed in NP-40 lysis buffer (50 mM Tris-Cl pH 8.0, 150 mM NaCl, 1% NP-40); immunoprecipitated with antibodies against NRP1, NRP2, VEGFR1, VEGFR2 or IgG at 4°C overnight, protein A agarose; Western blot"}, "[2]": {"molecular_target": "VEGF receptor 2 (VEGFR2) (human (endogenous in HUVEC)) (UniProt P35968)", "assay": "co-IP; endogenous proteins; HUVECs (siCon or siSALM4 transfected, stimulated with VEGF-A) lysed in NP-40 lysis buffer (50 mM Tris-Cl pH 8.0, 150 mM NaCl, 1% NP-40); immunoprecipitated with antibodies against NRP1, NRP2, VEGFR1, VEGFR2 or IgG at 4°C overnight, protein A agarose; Western blot"}, "[3]": {"molecular_target": "T1, PTP1B (human (endogenous in HUVEC)) (UniProt P18031)", "T1 sequence": "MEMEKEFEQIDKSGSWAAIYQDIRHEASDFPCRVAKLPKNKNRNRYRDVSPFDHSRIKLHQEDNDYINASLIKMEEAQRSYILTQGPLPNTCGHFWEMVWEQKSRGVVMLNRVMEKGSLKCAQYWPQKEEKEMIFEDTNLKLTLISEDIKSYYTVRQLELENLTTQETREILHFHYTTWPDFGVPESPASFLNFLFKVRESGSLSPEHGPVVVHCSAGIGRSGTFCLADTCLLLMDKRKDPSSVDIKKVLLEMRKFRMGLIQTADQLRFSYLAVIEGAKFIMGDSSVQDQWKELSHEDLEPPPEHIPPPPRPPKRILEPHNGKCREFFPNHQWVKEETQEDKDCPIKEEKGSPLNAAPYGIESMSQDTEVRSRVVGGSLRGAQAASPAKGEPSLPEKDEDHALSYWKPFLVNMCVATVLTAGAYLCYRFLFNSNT", "assay": "co-IP; HUVEC lysate; VE-PTP and PTP1B antibodies used for immunoprecipitation; Western blot for SALM4"}, "[4]": {"molecular_target": "VE–protein tyrosine phosphatase (VE-PTP) (human (endogenous in HUVEC)) (UniProt P23467)", "assay": "co-IP; HUVEC lysate; VE-PTP and PTP1B antibodies used for immunoprecipitation; Western blot for SALM4"}, "[5]": {"molecular_target": "neuropilin (NRP) 1 (human (endogenous in HUVEC)) (UniProt O14786)", "assay": "co-IP; endogenous proteins; HUVECs (siCon or siSALM4 transfected, stimulated with VEGF-A) lysed in NP-40 lysis buffer (50 mM Tris-Cl pH 8.0, 150 mM NaCl, 1% NP-40); immunoprecipitated with antibodies against NRP1, NRP2, VEGFR1, VEGFR2 or IgG at 4°C overnight, protein A agarose; Western blot"}, "[6]": {"molecular_target": "T2, neuropilin (NRP) 2 (human (endogenous in HUVEC)) (UniProt O60462)", "T2 sequence": "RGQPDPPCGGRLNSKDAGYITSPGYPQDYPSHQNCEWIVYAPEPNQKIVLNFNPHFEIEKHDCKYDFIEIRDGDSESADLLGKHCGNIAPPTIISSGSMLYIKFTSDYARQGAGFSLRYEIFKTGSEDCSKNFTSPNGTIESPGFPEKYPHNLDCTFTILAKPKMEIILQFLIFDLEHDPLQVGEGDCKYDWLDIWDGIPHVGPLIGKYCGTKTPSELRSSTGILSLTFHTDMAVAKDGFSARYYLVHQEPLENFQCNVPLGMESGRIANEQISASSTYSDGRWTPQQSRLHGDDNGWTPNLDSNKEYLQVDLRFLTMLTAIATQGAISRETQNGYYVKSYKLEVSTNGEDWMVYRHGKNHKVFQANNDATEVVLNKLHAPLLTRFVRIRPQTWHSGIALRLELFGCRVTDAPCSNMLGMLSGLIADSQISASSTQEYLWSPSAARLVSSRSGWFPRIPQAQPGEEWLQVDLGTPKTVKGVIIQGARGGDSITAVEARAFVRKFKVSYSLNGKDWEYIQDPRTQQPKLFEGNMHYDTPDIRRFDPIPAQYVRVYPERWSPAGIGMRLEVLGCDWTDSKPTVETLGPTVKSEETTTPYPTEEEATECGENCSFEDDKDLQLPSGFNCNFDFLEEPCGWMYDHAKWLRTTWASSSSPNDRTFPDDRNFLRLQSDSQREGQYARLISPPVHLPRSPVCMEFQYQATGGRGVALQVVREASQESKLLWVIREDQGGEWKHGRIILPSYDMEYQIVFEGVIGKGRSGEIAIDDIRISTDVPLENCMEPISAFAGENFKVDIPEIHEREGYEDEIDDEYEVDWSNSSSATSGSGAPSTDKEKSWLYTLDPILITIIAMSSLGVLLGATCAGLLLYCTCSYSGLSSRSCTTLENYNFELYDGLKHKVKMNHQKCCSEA", "assay": "co-IP; endogenous proteins; HUVECs (siCon or siSALM4 transfected, stimulated with VEGF-A) lysed in NP-40 lysis buffer (50 mM Tris-Cl pH 8.0, 150 mM NaCl, 1% NP-40); immunoprecipitated with antibodies against NRP1, NRP2, VEGFR1, VEGFR2 or IgG at 4°C overnight, protein A agarose; Western blot"}, "[7]": {"molecular_target": "full-length human neuropilin (NRP) 1, transfected construct (human) (UniProt O14786)", "assay": "co-IP; HUVECs transfected with pEGFP-N1 and pFLAG-CMV2 constructs of full-length human SALM4, NRP1 and VEGFR2, harvested 24 h after transfection; GFP and Flag M2 antibodies used for immunoprecipitation; Western blot"}, "[8]": {"molecular_target": "full-length human VEGFR2, transfected construct (human) (UniProt P35968)", "assay": "co-IP; HUVECs transfected with pEGFP-N1 and pFLAG-CMV2 constructs of full-length human SALM4, NRP1 and VEGFR2, harvested 24 h after transfection; GFP and Flag M2 antibodies used for immunoprecipitation; Western blot"}}, "note": "Results are given in words; binding and its absence hold for the method and conditions named. Binding seen in cells or lysates may run through a third protein. Some results given as binding are weak or reduced against the parent protein; the word gives no strength."}
{"molecule": "neuropilin (NRP) 1 (from UniProt O14786 22-923) (receptor)", "values": [{"measurement": "binding", "setting": "[1]", "result": "binds"}]}
{"molecule": "neuropilin (NRP) 2 (receptor, UniProt O60462 21-931) RGQPDPPCGGRLNSKDAGYITSPGYPQDYPSHQNCEWIVYAPEPNQKIVLNFNPHFEIEKHDCKYDFIEIRDGDSESADLLGKHCGNIAPPTIISSGSMLYIKFTSDYARQGAGFSLRYEIFKTGSEDCSKNFTSPNGTIESPGFPEKYPHNLDCTFTILAKPKMEIILQFLIFDLEHDPLQVGEGDCKYDWLDIWDGIPHVGPLIGKYCGTKTPSELRSSTGILSLTFHTDMAVAKDGFSARYYLVHQEPLENFQCNVPLGMESGRIANEQISASSTYSDGRWTPQQSRLHGDDNGWTPNLDSNKEYLQVDLRFLTMLTAIATQGAISRETQNGYYVKSYKLEVSTNGEDWMVYRHGKNHKVFQANNDATEVVLNKLHAPLLTRFVRIRPQTWHSGIALRLELFGCRVTDAPCSNMLGMLSGLIADSQISASSTQEYLWSPSAARLVSSRSGWFPRIPQAQPGEEWLQVDLGTPKTVKGVIIQGARGGDSITAVEARAFVRKFKVSYSLNGKDWEYIQDPRTQQPKLFEGNMHYDTPDIRRFDPIPAQYVRVYPERWSPAGIGMRLEVLGCDWTDSKPTVETLGPTVKSEETTTPYPTEEEATECGENCSFEDDKDLQLPSGFNCNFDFLEEPCGWMYDHAKWLRTTWASSSSPNDRTFPDDRNFLRLQSDSQREGQYARLISPPVHLPRSPVCMEFQYQATGGRGVALQVVREASQESKLLWVIREDQGGEWKHGRIILPSYDMEYQIVFEGVIGKGRSGEIAIDDIRISTDVPLENCMEPISAFAGENFKVDIPEIHEREGYEDEIDDEYEVDWSNSSSATSGSGAPSTDKEKSWLYTLDPILITIIAMSSLGVLLGATCAGLLLYCTCSYSGLSSRSCTTLENYNFELYDGLKHKVKMNHQKCCSEA", "values": [{"measurement": "binding", "setting": "[1]", "result": "binds"}, {"measurement": "binding", "setting": "[2]", "result": "binds"}]}
{"molecule": "synaptic adhesion-like molecule 4 (SALM4) (protein, UniProt Q9BTN0 17-628) SSPPQSATPSPCPRRCRCQTQSLPLSVLCPGAGLLFVPPSLDRRAAELRLADNFIASVRRRDLANMTGLLHLSLSRNTIRHVAAGAFADLRALRALHLDGNRLTSLGEGQLRGLVNLRHLILSNNQLAALAAGALDDCAETLEDLDLSYNNLEQLPWEALGRLGNVNTLGLDHNLLASVPAGAFSRLHKLARLDMTSNRLTTIPPDPLFSRLPLLARPRGSPASALVLAFGGNPLHCNCELVWLRRLAREDDLEACASPPALGGRYFWAVGEEEFVCEPPVVTHRSPPLAVPAGRPAALRCRAVGDPEPRVRWVSPQGRLLGNSSRARAFPNGTLELLVTEPGDGGIFTCIAANAAGEATAAVELTVGPPPPPQLANSTSCDPPRDGDPDALTPPSAASASAKVADTGPPTDRGVQVTEHGATAALVQWPDQRPIPGIRMYQIQYNSSADDILVYRMIPAESRSFLLTDLASGRTYDLCVLAVYEDSATGLTATRPVGCARFSTEPALRPCGAPHAPFLGGTMIIALGGVIVASVLVFIFVLLMRYKVHGGQPPGKAKIPAPVSSVCSQTNGALGPTPTPAPPAPEPAALRAHTVVQLDCEPWGPGHEPVGP", "values": [{"measurement": "binding", "setting": "[3]", "result": "no binding"}, {"measurement": "binding", "setting": "[4]", "result": "no binding"}, {"measurement": "binding", "setting": "[1]", "result": "no binding"}, {"measurement": "binding", "setting": "[5]", "result": "no binding"}, {"measurement": "binding", "setting": "[6]", "result": "no binding"}, {"measurement": "binding", "setting": "[2]", "result": "no binding"}]}
{"molecule": "full-length human SALM4, transfected construct (protein, UniProt Q9BTN0 17-628) SSPPQSATPSPCPRRCRCQTQSLPLSVLCPGAGLLFVPPSLDRRAAELRLADNFIASVRRRDLANMTGLLHLSLSRNTIRHVAAGAFADLRALRALHLDGNRLTSLGEGQLRGLVNLRHLILSNNQLAALAAGALDDCAETLEDLDLSYNNLEQLPWEALGRLGNVNTLGLDHNLLASVPAGAFSRLHKLARLDMTSNRLTTIPPDPLFSRLPLLARPRGSPASALVLAFGGNPLHCNCELVWLRRLAREDDLEACASPPALGGRYFWAVGEEEFVCEPPVVTHRSPPLAVPAGRPAALRCRAVGDPEPRVRWVSPQGRLLGNSSRARAFPNGTLELLVTEPGDGGIFTCIAANAAGEATAAVELTVGPPPPPQLANSTSCDPPRDGDPDALTPPSAASASAKVADTGPPTDRGVQVTEHGATAALVQWPDQRPIPGIRMYQIQYNSSADDILVYRMIPAESRSFLLTDLASGRTYDLCVLAVYEDSATGLTATRPVGCARFSTEPALRPCGAPHAPFLGGTMIIALGGVIVASVLVFIFVLLMRYKVHGGQPPGKAKIPAPVSSVCSQTNGALGPTPTPAPPAPEPAALRAHTVVQLDCEPWGPGHEPVGP", "values": [{"measurement": "binding", "setting": "[7]", "result": "no binding"}, {"measurement": "binding", "setting": "[8]", "result": "no binding"}]}
